Each structure is given as a SMILES string. ± gives the standard deviation of the averaged measurements. In all, about 3,800 compounds were measured (“cell shape (eccentricity) Z-score vs DMSO control”: median about 1.1, lowest 2% from about -4.7 on). The list shows a part of the results.

In this assay the test system is human monocyte-derived macrophages (M0). Briefly: cell shape (eccentricity) Z-score vs DMSO control; higher = more elongated, M2-like morphology. The conditions noted are these: 20 µM; 24 h; macrophage state: M0 (M-CSF).
In the case of `[O-][N+]c1ccc(O)c2ncccc12`, the “cell shape (Z-score)” value was determined as 5.15.

Turning to `CCCCN1CCCCC1C(=O)Nc1c(C)cccc1C` (configuration not stated), the “cell shape (Z-score)” value came to 0.561.

Turning to `CCOC(=O)NNc1nncc2ccccc12`, the “cell shape (Z-score)” value stood at 2.54.

In the case of `C=CCn1c(=O)c2cnc(Nc3ccc(N4CCN(C)CC4)cc3)nc2n1-c1cccc(C(C)(C)O)n1`, the “cell shape (Z-score)” value was determined as 7.6.

As for `Cc1nnc(C(C)C)n1C1CC2CCC(C1)N2CC[C@H](NC(=O)C1CCC(F)(F)CC1)c1ccccc1` (some centres not stated), the “cell shape (Z-score)” value worked out at 0.0663.

As for `CC(=O)O[C@]1(C(C)=O)CCC2C3C=C(Cl)C4=CC(=O)CC[C@]4(C)C3CC[C@@]21C` (some centres not stated), the “cell shape (Z-score)” value turned out to be 4.12.

Turning to `COc1cc([C@H]2OC[C@H]3[C@@H]2CO[C@@H]3c2ccc(O)c(OC)c2)ccc1O`, the “cell shape (Z-score)” value was found to be 0.81.

Turning to `O=C(CN1CCNCC1)NC1CCCCC1`, the “cell shape (Z-score)” value was 0.365.

Turning to `Cn1c(=O)c2c(ncn2C)n(C)c1=O`, the “cell shape (Z-score)” value was 3.49.

As to `C[C@@H]1CC[C@]2(C(=O)O)CC[C@]3(C)C(=CCC4[C@@]5(C)CC[C@H](O)[C@](C)(C(=O)O)C5CC[C@]43C)C2[C@]1(C)O` (some centres not stated), the “cell shape (Z-score)” value stood at 2.09.

Take `c1ccc(CN2CCC3(CCc4ccccc43)CC2)cc1`: the “cell shape (Z-score)” value is 1.94.

Turning to `CN1CCC(OC(c2ccccc2)c2ccccc2)CC1`, the “cell shape (Z-score)” value is -2.1.

Turning to `O=c1cc(-c2ccc(O)cc2)oc2c(C3OC(CO)C(O)C(O)C3O)c(O)c(C3OCC(O)C(O)C3O)c(O)c12` (configuration not stated), the “cell shape (Z-score)” value stood at 0.842.

For `C[C@@H]1Cc2c(O)c(O)cc(O)c2C(=O)O1`, the “cell shape (Z-score)” value is 2.95.

For `O=c1[nH]c(=O)c2ccccc2o1`, the “cell shape (Z-score)” value came to 1.33.

For `Nc1ccn([C@@H]2O[C@H](CO)[C@@H](O)[C@@H]2O)c(=O)n1`, the “cell shape (Z-score)” value was -0.126.

Take `NC(COCc1ccccc1)C(=O)O` (configuration not stated): the “cell shape (Z-score)” value came out at 1.15.

`C[C@]12C=CC(=O)C=C1CCC1C2C(=O)C[C@@]2(C)C1CC[C@]2(O)C(=O)CO` (some centres not stated): the “cell shape (Z-score)” value came out at 2.52.

`CCCc1nn(C)c2c(=O)nc(-c3cc(S(=O)(=O)N4CCN(C)CC4)ccc3OCC)[nH]c12`: the “cell shape (Z-score)” value is 0.36.

For the compound `COc1cc(C)c(C(=O)Oc2cc(C)c(C(=O)Oc3cc(C)c(C(=O)NC(C)C(=O)O)c(O)c3)c(O[C@@H]3O[C@H](CO)[C@@H](O)[C@H](O)[C@H]3OC(C)=O)c2)c(OC)c1` (some centres not stated), the “cell shape (Z-score)” value worked out at 2.29 ± 1.2.

`CC(=O)CCCC1Cc2cccc(O)c2C(=O)O1` (configuration not stated): the “cell shape (Z-score)” value turned out to be 1.55.

On to `Cn1cnc([N+](=O)[O-])c1Cl`, for which the “cell shape (Z-score)” value is -0.296.

Turning to `Nc1cc(N2CCCCC2)nc(N)[n+]1[O-]`, the “cell shape (Z-score)” value is -1.47.

Regarding `COc1ccccc1N1CCN(CCCCN2C(=O)CCC2=O)CC1`, the “cell shape (Z-score)” value was found to be 2.45.

Regarding `O=c1ccc2ccccc2o1`, the “cell shape (Z-score)” value came out at 0.0243.

Regarding `O=C1CC(c2ccc(O)c(O)c2)Oc2c1ccc(O)c2O` (configuration not stated), the “cell shape (Z-score)” value is 3.28.

On to `O=C(CCCN1CCC(O)(c2ccc(Cl)cc2)CC1)c1ccc(F)cc1`, for which the “cell shape (Z-score)” value is -2.24.

Take `CCCc1cc(C(=N)S)ccn1`: the “cell shape (Z-score)” value worked out at 2.41.

Regarding `Nc1ccc(-c2nc3ccc(-c4nc5ccc(N)cc5[nH]4)cc3[nH]2)cc1`, the “cell shape (Z-score)” value is -0.879.

For `COc1cc(O)c(Cc2ccccc2O)c(O)c1C(=O)CCc1ccccc1`, the “cell shape (Z-score)” value came out at 1.81.

In the case of `COc1c(OC2OC(CO)C(O)C(O)C2O)cc(O)c2c1OC(c1ccccc1)CC2=O` (configuration not stated), the “cell shape (Z-score)” value came out at 1.91.

`C/C=C(/C)C(=O)OC1c2c(ccc3ccc(=O)oc23)OC(C)(C)C1OC(=O)/C(C)=C\C` (configuration not stated): the “cell shape (Z-score)” value was 0.395 ± 1.2.

For `CCC[C@@H]1C[C@@H](C(=O)NC(C(C)Cl)C2O[C@H](SC)[C@H](O)[C@@H](O)[C@H]2O)N(C)C1` (some centres not stated), the “cell shape (Z-score)” value was determined as 3.16.

Regarding `CC(C)(O)CCC(=O)C(C)(O)C1C(O)CC2(C)C3CC=C4C(CC(OC5OC(CO)C(O)C(O)C5O)C(O)C4(C)C)C3(C)CCC12C` (configuration not stated), the “cell shape (Z-score)” value is -0.37.

`COc1cc(CCC(=O)N2CCC=CC2=O)cc(OC)c1OC`: the “cell shape (Z-score)” value is -1.14.

As to `CCCCOc1cc(CC2CNC(=O)N2)ccc1OC` (configuration not stated), the “cell shape (Z-score)” value stood at 1.82.

For the compound `O=C(O)CCc1ccc(NCc2cccc(Oc3ccccc3)c2)cc1`, the “cell shape (Z-score)” value worked out at 2.96.

Take `Nc1c(CC(=O)O)cccc1C(=O)c1ccc(Br)cc1`: the “cell shape (Z-score)” value came to 2.14.

Consider `C=C1CCC2C(C)(CO)CCCC2(C)C1CC/C(C)=C/C(=O)O` (configuration not stated), for which the “cell shape (Z-score)” value is -4.24.

For the compound `CO[C@H]1/C=C/O[C@@]2(C)Oc3c(C)c(O)c4c(O)c(c(C=NN5CCN(C)CC5)c(O)c4c3C2=O)NC(=O)/C(C)=C\C=C\C(C)[C@H](O)[C@@H](C)[C@@H](O)[C@@H](C)[C@@H](OC(C)=O)[C@@H]1C` (some centres not stated), the “cell shape (Z-score)” value was 0.7.

With `CCOc1ccc2nc3cc(N)ccc3c(N)c2c1`, the “cell shape (Z-score)” value was -2.89.

With `C=C1C2CC[C@@]3(C)[C@H](c4ccoc4)OC(=O)C[C@]13O[C@H]1CC(=O)C(C)(C)[C@H](C(O)C(=O)OC)[C@@]21C` (some centres not stated), the “cell shape (Z-score)” value is 1.29.

(Values after the supplement of paper PMC7858590.)
